Reference: US20240116889A1, “ANTIVIRAL COMPOUNDS AND METHODS” (priority 2019, published 2024)
At least one compound was matched to its structure with a doubt left.

Experiments:
USSR H1N1 virus = assay type: cell-based, influenza A virus (A/USSR/77)
pdm H1N1 virus = assay type: cell-based, influenza A virus (A/California/07/2009)
[1] = test system: extracellular Ca^2+ influx; assay: Intracellular Ca2+ monitoring assay (Fluo-8) in NPTr cells; assay type: cell-based, pig; settings: non-toxic doses (CPA up to 5 μM; TG 10 min)

SMILES: CC(=O)C1=C(O)[C@@H]2[C@H]3c4c[nH]c5cccc(c45)C[C@H]3C(C)(C)N2C1=O [CPA, Cyclopiazonic acid]
- progeny virus output vs DMSO control (USSR H1N1 virus): no significant reduction in virus output
- progeny virus output vs DMSO control (pdm H1N1 virus): no significant reduction in virus output
- extracellular Ca^2+ influx [1]: did not elicit extracellular Ca^2+ influx
